System: 4T1 cells
Test: RNA sequencing and analysis (DEGs, GSEA)
Assay type: cell-based, Mouse
Details: 6.25 μM, 12 h
Procedure: To understand the effect of Rhein-DCA conjugate on the energy flow of glycolysis in cancer cells, we performed RNA sequencing analysis on 4T1 cell lines to analyze the genome. After various treatments for 12 h, all samples were clustered via principal component analysis (PCA) (Figure S12). […] Furthermore, the DEGs involved in glycolysis pathway of kyoto encyclopedia of genes and genomes (KEGG) databases were analyzed (Figure 2G). […] But as a pyruvate analogue, DCA led to the inactivation of PDK1 by binding to the pyruvate-binding pocket of PDK1 protein, together with down-regulation of PDK1 gene, thus leading more prominent restraint of glycolysis.
We next investigated whether the OXPHOS route would be further undermined by Rhein-DCA conjugate when the glycolysis was blocked. […] Thus, it was imperative to simultaneously halt glycolysis and OXPHOS to induce energy obstruction and apoptosis.
4T1 cells were seeded in 10 cm culture dishes and cultured until the confluency reached approximately 80%. The cells were treated with PBS, DCA, rhein, and Rhein-DCA conjugate (at a concentration of 6.25 μM) for 12 h. After that, the cells were collected and suspended in TRIzol Reagent for RNA sequencing. All samples were sent to Shanghai Majorbio Bio-pharm Biotechnology Co., Ltd. (Shanghai, P. R. China) for detection. Total RNA was extracted from 4T1 cells and was measured using the nanodrop-2000. The quality of RNA was evaluated by agarose gel electrophoresis and analyzed with Agilent5300. cDNA libraries were constructed according to the Illumina stranded mRNA prep, Ligation (USA) protocol. The DNA was further enriched by PCR amplification and purified by 2% Low Range Ultra Agarose. Clusters were generated by Bridge PCR on the cBot after being quantified by Qubit 4.0, and sequenced with NovaSeq X Plus platform (PE150). The differential expression analysis of various gene expressions was performed using DESeq2. The GO functional enrichment and KEGG pathway analysis were conducted on Goatools and Python scipy software.

Compound | number of down-regulated genes (DEGs vs control) | number of up-regulated genes (DEGs vs control)
O=C(O)C(Cl)Cl [DCA, Dichloroacetate] | 101 | 38
O=C(O)c1cc(O)c2c(c1)C(=O)c1cccc(O)c1C2=O [Rhein, 4,5-dihydroxyanthraquinone-2-carboxylic acid] | 88 | 48
O=C(OCCOC(=O)C(Cl)Cl)c1cc(O)c2c(c1)C(=O)c1cccc(O)c1C2=O [Rhein-DCA] | 1501 | 1563
